Consider 74 compounds from the supplement of paper PMC9938546.

Where a name gives a salt, the structure may show the parent alone. This is one part of the list. Baselines shift from plate to plate; read single values as rough.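 HCT116-GFP is a human colorectal cancer cell line that carries a KRAS mutation, is microsatellite-unstable and always makes green fluorescent protein; the immune cells came from healthy donors. Live-cell imaging of the green signal stood in for cancer cell survival, and activated immune cells alone cut survival to about half.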

The test has as its system HCT116-GFP. The test can be described thus: HCT116-GFP viability (GFP intensity) relative to untreated HCT116-GFP monoculture control, co-culture with activated PBMCs; higher = less cancer cell killing. The note with it: culture: co-culture with anti-CD3/IL2 activated PBMCs 1:1; 10 µM; 72 h.
Regarding `Cc1ccsc1/C=C/C1=NCCCN1C` [Morantel tartrate], the HCT116-GFP viability turned out to be 42.2%.

On to `Nc1nc(NC2CC2)c2ncn([C@H]3C=C[C@@H](CO)C3)c2n1` [Abacavir Sulfate], for which the HCT116-GFP viability stood at 60.3%. Compound `O=C(COc1ccc(Cl)cc1)N1CCN(Cc2ccc3c(c2)OCO3)CC1` [Fipexide hydrochloride] returned an HCT116-GFP viability of 40.2%.

Compound `CNC(C)CCC=C(C)C` (centres undefined) [Isometheptene mucate] registered an HCT116-GFP viability of 29.7%. Next, `CN(Cc1cnc2nc(N)nc(N)c2n1)c1ccc(C(=O)N[C@@H](CCC(=O)O)C(=O)O)cc1` [Methotrexate]: 12.2%; `CN(Cc1cnc2nc(N)nc(N)c2n1)c1ccc(C(=O)N[C@@H](CCC(=O)O)C(=O)O)cc1` (racemic) [Amethopterin (R,S)]: 20.2%; `CCN(CC)CCNc1ccc(CO)c2sc3ccccc3c(=O)c12` [Hycanthone]: 17.5%.

`OC(CCCN1CCCCC1)(c1ccccc1)c1ccccc1` [Diphenidol hydrochloride] showed an HCT116-GFP viability of 44.8%.

As for `CCN(CC)CCOC(=O)C(c1ccccc1)c1ccccc1` [Adiphenine hydrochloride], the HCT116-GFP viability was 64.5%. `CCOC(=O)c1ccc(N)cc1` [Benzocaine] registered an HCT116-GFP viability of 74.8%. Turning to `C[C@]12CC[C@@H]3c4ccc(OS(=O)(=O)O)cc4CC[C@H]3[C@@H]1CCC2=O` [Estropipate], the HCT116-GFP viability was determined as 64.1%. `COc1cccc(OC)c1C(=O)N[C@@H]1C(=O)N2[C@@H]1SC(C)(C)[C@@H]2C(=O)O` [Methicillin sodium] came in with an HCT116-GFP viability of 45.5%.

As for `Cc1ccc(S(=O)(=O)NC(=O)NN2CCCCCC2)cc1` [Tolazamide], the HCT116-GFP viability stood at 50%. Next, `CCCCC1(COC(=O)CCC(=O)O)C(=O)N(c2ccccc2)N(c2ccccc2)C1=O` [Suxibuzone]: 66.4%; `COc1cc(NC(C)CCCN)c2ncccc2c1` (centres undefined) [Primaquine diphosphate]: 2.39%. As for `CCCCNc1c(C(=O)OCC)c(C)nc2c1cnn2CC` [Tracazolate hydrochloride], the figure is 56.7%; as for `COc1cc(-c2ccc(=O)[nH]n2)ccc1OC(F)F` [Zardaverine], 58.1%. As for `CSc1ccc2c(c1)N(CCC1CCCCN1C)c1ccccc1S2` (centres undefined) [Thioridazine hydrochloride], the figure is 38.4%. Regarding `CC1=C(/C=C/C(C)=C/C=C/C(C)=C\C(=O)O)C(C)(C)CCC1` [Isotretinoin], the HCT116-GFP viability turned out to be 51.4%. `CC/C(=C(/CC)c1ccc(O)cc1)c1ccc(O)cc1` [Diethylstilbestrol]: the HCT116-GFP viability is 55.9%. `Cc1cc(-c2ccccc2)nnc1NCCN1CCOCC1` [Minaprine dihydrochloride] showed an HCT116-GFP viability of 39.3%. In turn, `NC(N)=Nc1nc(CSCC/C(N)=N/S(N)(=O)=O)cs1` [Famotidine] had an HCT116-GFP viability of 39.1%. `CN(C)[C@@H]1C(O)=C(C(N)=O)C(=O)[C@@]2(O)C(O)=C3C(=O)c4c(O)cccc4[C@@](C)(O)[C@H]3[C@H](O)[C@@H]12` [Oxytetracycline dihydrate] showed an HCT116-GFP viability of 38.7%.

`CC(CN(C)C)CN1c2ccccc2Sc2ccccc21` (centres undefined) [Trimeprazine tartrate] came in with an HCT116-GFP viability of 77.6%.

In turn, `CC1(C)[C@@H](OC(=O)CCC(=O)O)CC[C@]2(C)[C@H]3C(=O)C=C4[C@@H]5C[C@@](C)(C(=O)O)CC[C@]5(C)CC[C@@]4(C)[C@]3(C)CC[C@@H]12` [Carbenoxolone disodium salt] showed an HCT116-GFP viability of 76.5%. For the compound `N=C(N)NCCN1CCCCCCC1` [Guanethidine sulfate], the HCT116-GFP viability was 37.5%.

On to `C#C[C@]1(O)CC[C@H]2[C@@H]3CCC4=CC(=O)CC[C@@H]4[C@H]3CC[C@@]21CC` [Norgestrel-(-)-D], for which the HCT116-GFP viability was determined as 74.7%. Take `C=CCOC(Cn1ccnc1)c1ccc(Cl)cc1Cl` (centres undefined) [Enilconazole]: the HCT116-GFP viability was determined as 34.1%. `CC(=O)OCC(=O)[C@@]1(OC(C)=O)[C@@H](C)C[C@H]2[C@@H]3C[C@H](F)C4=CC(=O)C=C[C@]4(C)[C@@]3(F)[C@@H](O)C[C@@]21C` [Diflorasone Diacetate] came in with an HCT116-GFP viability of 88.4%.

`CC(CN(C)C)C(C)(O)Cc1ccc(Cl)cc1` (centres undefined) [Clobutinol hydrochloride] returned an HCT116-GFP viability of 54.8%. As for `C[C@]1(Cn2ccnn2)[C@H](C(=O)O)N2C(=O)C[C@H]2S1(=O)=O` [Tazobactam], the figure is 57.3%; as for `CC[C@@H](CO)NCCN[C@@H](CC)CO` [Ethambutol dihydrochloride], 49.4%. On to `CCCOc1ccc(C(=O)OCCN(CC)CC)cc1N` [Proparacaine hydrochloride], for which the HCT116-GFP viability came to 71.5%. `C=CCSCC1Nc2cc(Cl)c(S(N)(=O)=O)cc2S(=O)(=O)N1` (centres undefined) [Althiazide] showed an HCT116-GFP viability of 95.6%. Compound `c1ccc(CN(CC2=NCCN2)c2ccccc2)cc1` [Antazoline hydrochloride] gave an HCT116-GFP viability of 50.3%.

Regarding `CN(C)CC/C=C1/c2ccccc2COc2ccc(CC(=O)O)cc21` [Olopatadine hydrochloride], the HCT116-GFP viability came to 28.8%.

The compound `CC(C(=O)O)c1ccc(C(=O)c2ccccc2)s1` (centres undefined) [Tiaprofenic acid] displayed an HCT116-GFP viability of 32.3%. `CC(=O)N(CC(O)CN(C(C)=O)c1c(I)c(C(=O)NCC(O)CO)c(I)c(C(=O)NCC(O)CO)c1I)c1c(I)c(C(=O)NCC(O)CO)c(I)c(C(=O)NCC(O)CO)c1I` (centres undefined) [Iodixanol] gave an HCT116-GFP viability of 63.5%. For the compound `O=C(c1ccccc1)c1ccc2n1CCC2C(=O)O` (centres undefined) [Ketorolac tromethamine], the HCT116-GFP viability was determined as 69.4%. `CCOC(=O)[C@@](C)(N)Cc1ccc(O)c(O)c1` [Methyldopate hydrochloride] gave an HCT116-GFP viability of 19%. `COc1c(N2CCNC(C)C2)c(F)cc2c(=O)c(C(=O)O)cn(C3CC3)c12` (centres undefined) [Gatifloxacin] showed an HCT116-GFP viability of 35.6%. On to `CN1Cc2c(N)cccc2C(c2ccccc2)C1` (centres undefined) [Nomifensine maleate], for which the HCT116-GFP viability is 31.2%. As for `CC(C)(O)c1ccccc1CC[C@@H](SCC1(CC(=O)O)CC1)c1cccc(/C=C/c2ccc3ccc(Cl)cc3n2)c1` [Montelukast], the figure is 9.62%; as for `c1ccc(CNc2ncnc3nc[nH]c23)cc1` [Aminopurine, 6-benzyl], 58.4%.

In turn, `NC1CCN(c2nc3c(cc2F)c(=O)c(C(=O)O)cn3-c2ccc(F)cc2F)C1` (centres undefined) [Tosufloxacin hydrochloride] came in with an HCT116-GFP viability of 33.6%. `COC(=O)Nc1nc2cc([S+]([O-])c3ccccc3)ccc2[nH]1` (centres undefined) [Oxfendazol] had an HCT116-GFP viability of 9.72%. Regarding `Cc1cc(N)c2ccccc2[n+]1CCCCCCCCCC[n+]1c(C)cc(N)c2ccccc21` [Dequalinium dichloride], the HCT116-GFP viability turned out to be 6.35%. `Nc1ccn([C@@H]2CS[C@H](CO)O2)c(=O)n1` [Lamivudine] had an HCT116-GFP viability of 29.3%. For the compound `COc1ccccc1OCC(O)COC(N)=O` (centres undefined) [Methocarbamol], the HCT116-GFP viability came to 25.1%. As to `CO/N=C(\C(=O)N[C@@H]1C(=O)N2C(C(=O)OC(C)OC(C)=O)=C(COC(N)=O)CS[C@H]12)c1ccco1` (some centres undefined) [Cefuroxime axetil], the HCT116-GFP viability turned out to be 32%. `CN1CCC(OC(c2ccccc2)c2ccccc2)CC1` [Diphenylpyraline hydrochloride] came in with an HCT116-GFP viability of 73.8%. On to `O=C(Oc1cccc2cccnc12)c1ccccc1` [Benzoxiquine], for which the HCT116-GFP viability stood at 26.2%. For the compound `Clc1ccc(Nc2nnc(Cc3ccncc3)c3ccccc23)cc1` [Vatalanib], the HCT116-GFP viability was determined as 25.2%. `Fc1ccc([C@@H]2CCNC[C@H]2COc2ccc3c(c2)OCO3)cc1` [Paroxetine Hydrochloride] registered an HCT116-GFP viability of 63.4%. For `Nc1nc(O)c2ncn(CCC(CO)CO)c2n1` [Penciclovir], the HCT116-GFP viability turned out to be 38%. As for `O=c1[nH]cnc2c1ncn2[C@H]1CC[C@@H](CO)O1` [Didanosine], the figure is 37.5%; as for `CN(C/C=C/C#CC(C)(C)C)Cc1cccc2ccccc12` [Terbinafine], 18.1%. Consider `NCCC[C@H](N)CC(=O)N[C@H]1CNC(=O)[C@H]([C@H]2C[C@H](O)NC(N)=N2)NC(=O)/C(=C/NC(N)=O)NC(=O)[C@H](CO)NC(=O)[C@H](CO)NC1=O` [Viomycin sulfate], for which the HCT116-GFP viability is 12.8%. Compound `CN(C)CCCN1c2ccccc2CCc2ccccc21` [Imipramine hydrochloride] had an HCT116-GFP viability of 74.4%. Consider `NC(CO)C(=O)NNCc1ccc(O)c(O)c1O` (centres undefined) [Benserazide hydrochloride], for which the HCT116-GFP viability is 71.3%. In turn, `O=C1c2cccc3c2[C@H](CCC3)CN1[C@@H]1CN2CCC1CC2` [Palonosetron hydrochloride] displayed an HCT116-GFP viability of 36.9%.

`NCC[C@H](O)C(=O)N[C@@H]1C[C@H](N)[C@@H](O[C@H]2O[C@H](CN)[C@@H](O)[C@H](O)[C@H]2O)[C@H](O)[C@H]1O[C@H]1O[C@H](CO)[C@@H](O)[C@H](N)[C@H]1O` [Amikacin hydrate] showed an HCT116-GFP viability of 44.2%. In the case of `CC(C)CN(C[C@@H](O)[C@H](Cc1ccccc1)NC(=O)O[C@H]1CO[C@H]2OCC[C@H]21)S(=O)(=O)c1ccc(N)cc1` [Darunavir], the HCT116-GFP viability was 54.1%. Regarding `OCCN1C[C@H](O)[C@@H](O)[C@H](O)[C@H]1CO` [Miglitol], the HCT116-GFP viability amounted to 35.2%. Regarding `CC(C)C(=O)Nc1ccc([N+](=O)[O-])c(C(F)(F)F)c1` [Flutamide], the HCT116-GFP viability was determined as 42.7%. `Cn1cnc([N+](=O)[O-])c1Sc1ncnc2[nH]cnc12` [Azathioprine] returned an HCT116-GFP viability of 28.1%. As to `C[C@@]1(O)CCOC(=O)C1` [Mevalonic-D, L acid lactone], the HCT116-GFP viability worked out at 74.7%. In turn, `COCC(=O)Nc1c(I)c(C(=O)NCC(O)CO)c(I)c(C(=O)N(C)CC(O)CO)c1I` (centres undefined) [Iopromide] returned an HCT116-GFP viability of 75.4%.

`O=C(O)CCCC[C@@H]1SC[C@@H]2NC(=O)N[C@@H]21` [Biotin]: the HCT116-GFP viability is 45%. Compound `CC1COc2c(N3CCN(C)CC3)c(F)cc3c(=O)c(C(=O)O)cn1c23` (centres undefined) [Ofloxacin] yielded an HCT116-GFP viability of 58.5%.

For the compound `CC(=O)SCC(Cc1ccccc1)C(=O)NCC(=O)OCc1ccccc1` (centres undefined) [Racecadotril], the HCT116-GFP viability is 56.4%. In turn, `C[C@H](CCC(=O)O)[C@H]1CC[C@H]2[C@@H]3CC[C@@H]4C[C@H](O)CC[C@]4(C)[C@H]3CC[C@]12C` [Lithocholic acid] came in with an HCT116-GFP viability of 65.5%. Regarding `COC(=O)C1=C(C)NC(C)=C(C(=O)OC(C)C)C1c1cccc2nonc12` (centres undefined) [Isradipine], the HCT116-GFP viability amounted to 31.5%. As for `CC(C)NCC(O)c1cc(O)cc(O)c1` (centres undefined) [Metaproterenol sulfate, orciprenaline sulfate], the figure is 53.7%.
